At least one structure is not confirmed: it was looked up by name or label, or the drawing left a doubt.
Test system: Aβ42 production and/or release from SM-4 cells
Assay: Aβ42 ELISA of culture media from SM-4 cells
Type: cell-based
Conditions: 50-500 μM, 16 hrs
Description: Cell Lines and Pharmacological Treatments. 293 EBNA cells (InVitrogen, Carlsbad, Calif.) stably transfected with Swedish mutant β-Amyloid Precursor Protein -695 (SM4 cells) were routinely maintained in DMEM supplemented with sodium pyruvate (1 mM) and 10% fetal bovine serum. Cells were seeded into poly-D-Lysine (SIGMA) coated 6-well plates at a density of 5-7×10^5 cells per well. Subsequently, the cells were rinsed in 1 ml of PBS and treated with 10-500 μM of pirinixic acid in serum-free/phenol red-free DMEM for 16 hours.
Aβ Detection and Standardization. […] The cells were lysed in 0.1% Triton X-100 in PBS supplemented with 5 μM propridium iodide (Molecular Probes, Eugene, Oreg.) and incubated at 37° C. for 30 minutes prior to measuring fluorescence. Aβ40 and Aβ42 were standardized against propridium iodide fluorescence as a measure of total cell number. […]
After the pharmacological treatment, the exposure media was collected and supplemented with 10% sample treatment buffer (40 mM sodium phosphate (pH 7.4), 40 mM triethanolamine, 0.1% Triton X-100, 200 mM NaCl, 2 mM EGTA, 0.1% Sodium azide), and assayed for either Aβ40 or Aβ42 by a calorimetric ELISA as per the manufacturer's protocol (Biosource International Inc, California). […] Aβ40 and Aβ42 were standardized against propridium iodide fluorescence as a measure of total cell number. […]

CCOC(=O)C(C)(C)Oc1ccc(Cl)cc1 [clofibrate]
Aβ42 extracellular levels: significantly increased
